This is an account of results in the supplement of paper PMC7877785.

± gives the uncertainty stated by the source. The uncertainty is large for many entries.

The data set is described as follows: self-splicing fitness, log relative to wild type (ln ratio); higher = more splicing; Tetrahymena group I intron in knt gene, E. coli kanamycin selection, DiMSum; sequences stand for … in CUCUCU…GGAGGGAAAAGUUAUCAGGCAUGCACCUGGUAGCUAGUCUUUAAACCAAUAGAUUGCAUCGGUUUAAAAGGCAAGACCGUCAAAUUGCGGGAAAGGGGUCAACAGCCGUUCAGUACCAAGUCUCAGGGGAAACUUUGAGAUGGCCUUGCAAAGGGUAUGGUAAUAAGCUGACGGACAUGGUCCUAACCACGCAGCCAAGUCCUAAGUCAACAGAUCUUCUGUUGAUAUGGAUGCAGUUCACAGACUAAAUGUCGGUCGGGGAAGAUGUAUUCUUCUCAUAAGAUAUAGUCGGACCUCUCCUUAAUGGGAGCUAGCGGAUGAAGUGAUGCAACACUGGAGCCGCUGGGAACUAAUUUGUAUGCGAAAGUAUAUUGAUUAGUUUUGGAGUACUCGUGGUCG
A digest of the protocol: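 Pooled colonies went to amplicon sequencing on an Illumina HiSeq 2500 after six replicate transformations. The plates were LB agar with 100 μg/mL carbenicillin, 50 μM IPTG and 0.2% rhamnose, with or without 25 μg/mL kanamycin, incubated overnight at 37°C or 30°C. The E. coli BL21(DE3) library had all eight P1ex-region intron nucleotides randomised, the intron placed in the knt kanamycin-resistance gene on pET-22b(+). DiMSum fitness is the error-weighted combination of replicate fold changes, kanamycin against none, normalised to wild type.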

On to GUUAAGCAAUAUUACGUGGU, for which the “self-splicing fitness (ln)” value by setting is: (30 °C) -2.79 ± 0.15; (37 °C) -2.35 ± 0.19.

For CAGUAGCAAUAUUACGUGGC, the “self-splicing fitness (ln)” value (30 °C) is -2.97 ± 0.28 and the “self-splicing fitness (ln)” value (37 °C) is -2.36 ± 0.29.

As for GGGGAGCAAUAUUACGUCCU, the “self-splicing fitness (ln)” value (37 °C) is -1.96 ± 0.56.

Regarding UCACAGCAAUAUUACGGCCC, the “self-splicing fitness (ln)” value is, setting by setting: (30 °C) -3.44 ± 0.45; (37 °C) -1.82 ± 0.44.

Consider UGCGAGCAAUAUUACGUGGC, for which the “self-splicing fitness (ln)” value is, setting by setting: (30 °C) -2.81 ± 0.56; (37 °C) -2.8 ± 0.61.

GAGCAGCAAUAUUACGUUCU: for the setting “30 °C”, the “self-splicing fitness (ln)” value was -5.73 ± 1.

With GUCAAGCAAUAUUACGGAGG, the “self-splicing fitness (ln)” value (30 °C) was -3.66 ± 0.52.

For GGGGAGCAAUAUUACGUGCC, the “self-splicing fitness (ln)” value is, setting by setting: (30 °C) -4.09 ± 1; (37 °C) 0.321 ± 1.2.

On to GGCAAGCAAUAUUACGCAGC, for which, under “30 °C”, the “self-splicing fitness (ln)” value was -4.22 ± 0.52.

Turning to GUUGAGCAAUAUUACGCCAU, where the note is “30 °C”, the “self-splicing fitness (ln)” value is -2.84 ± 0.53.

In the case of GAGCAGCAAUAUUACGCACU, the “self-splicing fitness (ln)” value was 0.841 ± 0.59 (30 °C) and -0.862 ± 0.58 (37 °C).

On to GGGAAGCAAUAUUACGCGGC, for which the “self-splicing fitness (ln)” value (37 °C) was -1.2 ± 0.66.

Regarding CUUGAGCAAUAUUACGAUCU, the “self-splicing fitness (ln)” value (30 °C) was -4 ± 1.

For the sequence UUAUAGCAAUAUUACGACGC, the “self-splicing fitness (ln)” value (37 °C) was -1.51 ± 0.63.

In the case of AUGGAGCAAUAUUACGAUUC, the “self-splicing fitness (ln)” value (37 °C) was -3.09 ± 0.6.

Turning to AUGGAGCAAUAUUACGCUAU, the “self-splicing fitness (ln)” value (30 °C) was -3.89 ± 0.15 and the “self-splicing fitness (ln)” value (37 °C) is -2.4 ± 0.22.

Consider AGUGAGCAAUAUUACGUAUG, for which, under “30 °C”, the “self-splicing fitness (ln)” value was -4.46 ± 0.59.

Take CUUCAGCAAUAUUACGCCUC: the “self-splicing fitness (ln)” value (30 °C) was -4.79 ± 1.

Consider UAGUAGCAAUAUUACGAAGA, for which the “self-splicing fitness (ln)” value is -2.81 ± 0.76 (30 °C) and -1.6 ± 0.53 (37 °C).

Take CCGAAGCAAUAUUACGGGCC: the “self-splicing fitness (ln)” value was -3.66 ± 1 (30 °C) and -3.18 ± 1 (37 °C).

On to GUUAAGCAAUAUUACGGGCC, for which the “self-splicing fitness (ln)” value (30 °C) is -3.57 ± 1.

For UCACAGCAAUAUUACGCUAU, the “self-splicing fitness (ln)” value (30 °C) is -5.14 ± 0.51.

In the case of CCCUAGCAAUAUUACGCUGC, under “37 °C”, the “self-splicing fitness (ln)” value was -4 ± 0.51.

With ACGGAGCAAUAUUACGCGCC, the “self-splicing fitness (ln)” value is, setting by setting: (30 °C) -1.55 ± 0.87; (37 °C) 0.406 ± 1.2.

For GUUGAGCAAUAUUACGCCUC, for the setting “37 °C”, the “self-splicing fitness (ln)” value is -0.735 ± 1.

For the sequence UGGUAGCAAUAUUACGUCCC, the “self-splicing fitness (ln)” value (30 °C) was -0.754 ± 0.88 and the “self-splicing fitness (ln)” value (37 °C) came out at 1.51 ± 0.75.

With CGCGAGCAAUAUUACGUCAC, the “self-splicing fitness (ln)” value by setting is: (30 °C) -3.34 ± 0.5; (37 °C) -1.73 ± 0.64.

In the case of UUUGAGCAAUAUUACGAUCU, the “self-splicing fitness (ln)” value is -2.42 ± 1.2 (30 °C) and -1.9 ± 0.54 (37 °C).

In the case of UCCUAGCAAUAUUACGGUGU, the “self-splicing fitness (ln)” value (30 °C) was -1.71 ± 0.067 and the “self-splicing fitness (ln)” value (37 °C) is -0.222 ± 0.097.

Turning to AAUAAGCAAUAUUACGAGGC, the “self-splicing fitness (ln)” value (30 °C) is -3.35 ± 0.73.

Consider GGACAGCAAUAUUACGCUUC, for which the “self-splicing fitness (ln)” value (37 °C) was -1.7 ± 0.6.

Regarding UCACAGCAAUAUUACGAAGA, the “self-splicing fitness (ln)” value was -1.18 ± 0.085 (30 °C) and -1.09 ± 0.093 (37 °C).

In the case of AGUGAGCAAUAUUACGGUAC, the “self-splicing fitness (ln)” value (37 °C) was -3.3 ± 0.52.

Take UUAUAGCAAUAUUACGAGUC: the “self-splicing fitness (ln)” value is, setting by setting: (30 °C) -2.93 ± 1.1; (37 °C) -3.11 ± 0.61.

For the sequence CGAGAGCAAUAUUACGCAAG, the “self-splicing fitness (ln)” value (30 °C) was -3.6 ± 1 and the “self-splicing fitness (ln)” value (37 °C) was -0.209 ± 0.56.

As for GGGAAGCAAUAUUACGCUCU, where the note is “30 °C”, the “self-splicing fitness (ln)” value is -2.55 ± 0.78.

Take CGCGAGCAAUAUUACGUGGA: the “self-splicing fitness (ln)” value (30 °C) is -2.79 ± 0.16 and the “self-splicing fitness (ln)” value (37 °C) was -3.01 ± 0.34.

On to AGUUAGCAAUAUUACGCGAU, for which the “self-splicing fitness (ln)” value is, setting by setting: (30 °C) -0.77 ± 0.57; (37 °C) -1.85 ± 0.81.

Regarding AGUAAGCAAUAUUACGAGAC, the “self-splicing fitness (ln)” value (37 °C) was -2.61 ± 0.54.

For UGAUAGCAAUAUUACGUUAG, the “self-splicing fitness (ln)” value by setting is: (30 °C) -1.92 ± 0.1; (37 °C) -1.57 ± 0.15.

With CAAUAGCAAUAUUACGGCCC, the “self-splicing fitness (ln)” value runs as follows: (30 °C) -3.42 ± 0.73; (37 °C) -1.74 ± 0.59.

For the sequence CGUUAGCAAUAUUACGGCAC, the “self-splicing fitness (ln)” value by setting is: (30 °C) -3.81 ± 1; (37 °C) -1.36 ± 0.84.

In the case of GAGGAGCAAUAUUACGAAAG, the “self-splicing fitness (ln)” value by setting is: (30 °C) -3.68 ± 0.52; (37 °C) -2.01 ± 0.33.

On to AACGAGCAAUAUUACGCCCC, for which the “self-splicing fitness (ln)” value (37 °C) was -0.778 ± 1.4.
